Reference: PMC6969062
Construct, isoform or probe ends are uncertain for at least one entry. A weaker result is weaker than the reference pair of the same experiment. For some assays here: Protein sequences can lack the tags named with them.

Chains of the proteins cited; added tags and fusions are not shown. A line that says so, or that is headed by a name, gives the form on record, which may keep a tag or linker. Residues count along the entry.
UniProt P02769, 25-607: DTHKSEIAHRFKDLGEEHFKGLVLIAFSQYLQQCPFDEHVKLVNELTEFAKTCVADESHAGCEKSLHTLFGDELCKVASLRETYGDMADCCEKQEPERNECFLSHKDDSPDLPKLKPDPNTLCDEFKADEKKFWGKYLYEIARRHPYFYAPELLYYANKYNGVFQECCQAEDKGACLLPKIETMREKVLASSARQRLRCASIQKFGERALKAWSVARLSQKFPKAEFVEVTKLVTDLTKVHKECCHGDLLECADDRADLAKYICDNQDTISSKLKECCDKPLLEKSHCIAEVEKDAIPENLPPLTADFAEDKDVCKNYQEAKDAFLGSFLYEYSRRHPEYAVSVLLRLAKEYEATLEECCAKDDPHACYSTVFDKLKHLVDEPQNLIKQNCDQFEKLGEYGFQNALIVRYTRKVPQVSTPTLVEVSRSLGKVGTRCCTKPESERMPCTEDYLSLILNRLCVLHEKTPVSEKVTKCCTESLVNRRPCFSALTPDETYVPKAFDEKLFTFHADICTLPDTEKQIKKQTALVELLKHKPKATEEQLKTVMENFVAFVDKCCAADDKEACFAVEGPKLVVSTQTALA
fibrinogen (Homo sapiens), one chain, as listed by the source, chain 1 of 3: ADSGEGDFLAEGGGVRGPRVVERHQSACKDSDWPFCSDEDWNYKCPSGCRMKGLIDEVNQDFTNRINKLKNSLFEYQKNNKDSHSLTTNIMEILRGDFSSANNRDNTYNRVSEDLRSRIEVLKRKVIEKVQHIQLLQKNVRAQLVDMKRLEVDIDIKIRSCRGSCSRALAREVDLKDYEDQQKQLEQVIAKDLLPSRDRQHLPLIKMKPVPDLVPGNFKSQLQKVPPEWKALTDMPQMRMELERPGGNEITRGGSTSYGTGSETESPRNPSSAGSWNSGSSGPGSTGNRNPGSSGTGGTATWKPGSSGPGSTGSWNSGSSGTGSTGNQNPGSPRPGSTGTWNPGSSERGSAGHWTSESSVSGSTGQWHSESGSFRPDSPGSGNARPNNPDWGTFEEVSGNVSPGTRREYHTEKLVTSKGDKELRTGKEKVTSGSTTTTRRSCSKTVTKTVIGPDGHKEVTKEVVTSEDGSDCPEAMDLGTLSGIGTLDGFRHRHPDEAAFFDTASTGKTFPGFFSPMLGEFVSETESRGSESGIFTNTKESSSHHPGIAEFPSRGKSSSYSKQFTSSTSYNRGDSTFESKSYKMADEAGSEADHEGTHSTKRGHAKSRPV
fibrinogen (Homo sapiens), one chain, as listed by the source, chain 2 of 3: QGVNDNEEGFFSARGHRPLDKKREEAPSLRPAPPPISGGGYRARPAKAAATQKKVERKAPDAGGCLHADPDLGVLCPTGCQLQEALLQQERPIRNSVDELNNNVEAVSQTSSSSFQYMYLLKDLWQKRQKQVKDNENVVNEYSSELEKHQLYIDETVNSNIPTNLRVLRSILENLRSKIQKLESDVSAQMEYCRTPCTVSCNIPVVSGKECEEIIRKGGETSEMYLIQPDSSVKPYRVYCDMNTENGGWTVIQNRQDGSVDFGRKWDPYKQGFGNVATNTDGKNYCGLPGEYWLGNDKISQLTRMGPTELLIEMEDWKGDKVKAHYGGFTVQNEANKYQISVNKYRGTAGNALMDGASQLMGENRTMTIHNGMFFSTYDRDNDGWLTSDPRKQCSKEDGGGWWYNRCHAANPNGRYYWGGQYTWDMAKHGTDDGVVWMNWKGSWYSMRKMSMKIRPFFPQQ
fibrinogen (Homo sapiens), one chain, as listed by the source, chain 3 of 3: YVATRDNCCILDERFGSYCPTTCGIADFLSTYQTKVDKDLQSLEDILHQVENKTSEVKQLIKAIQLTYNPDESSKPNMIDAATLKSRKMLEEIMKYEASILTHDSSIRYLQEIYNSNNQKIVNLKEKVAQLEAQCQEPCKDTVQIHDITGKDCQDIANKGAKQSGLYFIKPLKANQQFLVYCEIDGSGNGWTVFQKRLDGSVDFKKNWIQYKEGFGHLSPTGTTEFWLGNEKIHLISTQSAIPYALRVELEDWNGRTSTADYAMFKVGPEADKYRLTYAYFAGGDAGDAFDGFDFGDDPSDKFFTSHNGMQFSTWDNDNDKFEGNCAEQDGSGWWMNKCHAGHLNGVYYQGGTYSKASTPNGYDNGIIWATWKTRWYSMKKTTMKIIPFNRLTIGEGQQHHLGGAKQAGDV

Columns and labels:
Assay in all cases: aptamer-antibody sandwich chemiluminescence on streptavidin wells
Details in all cases: 1 ng/mL protein in artificial serum (PBS), read-out also needs anti-RBP4 antibody; Binding buffer 20 mM Tris-HCl pH 7.6, 100 mM NaCl, 2 mM MgCl2, 5 mM KCl, 1 mM CaCl2, 0.02% Tween-20; RBP4 1 h (temperature not stated); commercial protein; label: 5' biotin; single-stranded DNA
[1] = molecular target: BSA (bovine serum albumin) (Bos taurus) (UniProt P02769)
[2] = molecular target: HSA (human serum albumin) (Homo sapiens) (UniProt P02768)
[3] = tested on: fibrinogen (Homo sapiens)
insulin = tested on: insulin
vaspin = molecular target: T1, vaspin (UniProt Q8IW75)
T1 sequence (looked up, limits assumed): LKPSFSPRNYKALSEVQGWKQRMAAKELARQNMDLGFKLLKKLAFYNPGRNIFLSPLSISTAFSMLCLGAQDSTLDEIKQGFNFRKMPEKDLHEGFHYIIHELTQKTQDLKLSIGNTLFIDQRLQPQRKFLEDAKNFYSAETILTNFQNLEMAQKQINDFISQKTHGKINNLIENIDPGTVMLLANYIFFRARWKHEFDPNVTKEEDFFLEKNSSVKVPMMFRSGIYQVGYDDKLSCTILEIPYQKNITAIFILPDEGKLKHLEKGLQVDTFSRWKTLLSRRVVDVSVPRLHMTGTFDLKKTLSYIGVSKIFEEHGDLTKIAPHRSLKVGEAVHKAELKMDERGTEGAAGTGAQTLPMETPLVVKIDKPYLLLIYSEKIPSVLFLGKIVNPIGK

Measured: binding result

TTTTTTTTTTATACCAGCTTATTCAATTACAGTAGTGAGGGGTCCGTCGTGGGGTAGTTGGGTCGTGGAGATAGTAAGTGCAATCT [RBA (RBP4 aptamer), biotin-T10]
binds more weakly: all assays above
